For five molecules, binding results are on record in PMC3039673.

These are yes or no findings as the source states them, for the method shown. Binding seen in cells or lysates may run through a third protein. Some results given as binding are weak or reduced against the parent protein; the word gives no strength.

Assay in all cases: co-IP; endogenous proteins; MDA-MB-231 cells preincubated 3 h with 50 uM MG132, induced or not with 2 ng/ml TGF-beta for 1 h; lysed in 150 mM co-IP buffer; IP with antibodies against Smad4, SNW1 or Ski, beads alone as negative control; Western blot
Background: Immunoblotting shows a protein as a band on a membrane.

Experiment [1] addresses T1, Smad4 (human (endogenous in MDA-MB-231)), Q13485.
T1 chain: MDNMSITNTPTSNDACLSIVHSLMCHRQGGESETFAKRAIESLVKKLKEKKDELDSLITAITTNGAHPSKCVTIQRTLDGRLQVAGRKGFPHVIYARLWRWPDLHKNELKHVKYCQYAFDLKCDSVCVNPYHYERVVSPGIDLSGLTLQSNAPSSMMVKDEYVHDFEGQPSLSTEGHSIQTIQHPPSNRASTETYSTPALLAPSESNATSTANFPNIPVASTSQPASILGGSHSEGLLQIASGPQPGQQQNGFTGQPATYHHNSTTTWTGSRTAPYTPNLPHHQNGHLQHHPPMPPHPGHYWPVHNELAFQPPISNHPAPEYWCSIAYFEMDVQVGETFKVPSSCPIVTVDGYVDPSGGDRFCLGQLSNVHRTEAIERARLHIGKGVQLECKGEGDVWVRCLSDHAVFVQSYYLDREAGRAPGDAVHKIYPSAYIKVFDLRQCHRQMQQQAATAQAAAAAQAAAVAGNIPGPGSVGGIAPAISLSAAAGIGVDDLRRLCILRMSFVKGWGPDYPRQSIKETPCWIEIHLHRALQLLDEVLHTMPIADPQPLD
The settings on record: remark: other sources report otherwise.

Experiment [2] concerns the target T2, SNW1 (human (endogenous in MDA-MB-231)), Q13573.
T2 chain: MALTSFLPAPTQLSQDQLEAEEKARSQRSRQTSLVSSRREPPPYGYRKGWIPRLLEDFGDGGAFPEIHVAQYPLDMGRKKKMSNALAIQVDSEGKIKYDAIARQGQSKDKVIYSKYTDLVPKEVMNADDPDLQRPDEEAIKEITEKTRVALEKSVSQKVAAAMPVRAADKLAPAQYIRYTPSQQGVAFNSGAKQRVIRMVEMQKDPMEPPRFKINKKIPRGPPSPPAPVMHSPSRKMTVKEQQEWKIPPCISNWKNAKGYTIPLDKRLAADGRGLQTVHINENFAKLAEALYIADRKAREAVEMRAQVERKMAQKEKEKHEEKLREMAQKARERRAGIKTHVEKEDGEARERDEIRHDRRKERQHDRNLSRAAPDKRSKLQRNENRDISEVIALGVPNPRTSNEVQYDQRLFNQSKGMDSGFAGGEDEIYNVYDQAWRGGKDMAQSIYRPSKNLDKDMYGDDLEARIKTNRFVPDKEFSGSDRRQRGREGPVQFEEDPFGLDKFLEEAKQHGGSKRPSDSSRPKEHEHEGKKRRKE
The conditions noted are these: remark: other sources report otherwise.

Experiment [3] addresses T3, SNW1 (human (endogenous in MDA-MB-231)) (UniProt Q13573).
T3 sequence: T2 chain

For experiment [4], the target named is Smad4 (human (endogenous in MDA-MB-231)) (UniProt Q13485).
Experiment [5] addresses T4, Ski (human (endogenous in MDA-MB-231)) (UniProt P12755).
T4 sequence: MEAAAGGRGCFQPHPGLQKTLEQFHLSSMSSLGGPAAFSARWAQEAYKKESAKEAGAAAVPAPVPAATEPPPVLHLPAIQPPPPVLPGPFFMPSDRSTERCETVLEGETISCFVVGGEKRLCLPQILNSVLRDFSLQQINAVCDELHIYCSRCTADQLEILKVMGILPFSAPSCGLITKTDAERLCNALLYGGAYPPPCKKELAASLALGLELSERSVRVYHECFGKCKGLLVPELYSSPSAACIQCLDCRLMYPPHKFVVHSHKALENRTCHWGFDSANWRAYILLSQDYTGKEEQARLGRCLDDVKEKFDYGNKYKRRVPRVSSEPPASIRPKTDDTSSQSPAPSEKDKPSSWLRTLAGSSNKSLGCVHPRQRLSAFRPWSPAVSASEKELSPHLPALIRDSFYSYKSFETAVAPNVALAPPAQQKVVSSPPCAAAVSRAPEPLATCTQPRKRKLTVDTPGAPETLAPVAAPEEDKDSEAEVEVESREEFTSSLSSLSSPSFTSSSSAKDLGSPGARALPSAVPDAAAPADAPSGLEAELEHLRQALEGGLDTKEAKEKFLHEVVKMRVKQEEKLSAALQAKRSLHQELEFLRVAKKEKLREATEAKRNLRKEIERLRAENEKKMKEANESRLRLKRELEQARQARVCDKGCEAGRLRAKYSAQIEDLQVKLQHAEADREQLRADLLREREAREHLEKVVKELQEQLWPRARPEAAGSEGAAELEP

B1: Smad3, P84022 1-425 (protein)
chain: MSSILPFTPPIVKRLLGWKKGEQNGQEEKWCEKAVKSLVKKLKKTGQLDELEKAITTQNVNTKCITIPRSLDGRLQVSHRKGLPHVIYCRLWRWPDLHSHHELRAMELCEFAFNMKKDEVCVNPYHYQRVETPVLPPVLVPRHTEIPAEFPPLDDYSHSIPENTNFPAGIEPQSNIPETPPPGYLSEDGETSDHQMNHSMDAGSPNLSPNPMSPAHNNLDLQPVTYCEPAFWCSISYYELNQRVGETFHASQPSMTVDGFTDPSNSERFCLGLLSNVNRNAAVELTRRHIGRGVRLYYIGGEVFAECLSDSAIFVQSPNCNQRYGWHPATVCKIPPGCNLKIFNNQEFAALLAQSVNQGFEAVYQLTRMCTIRMSFVKGWGAEYRRQTVTSTPCWIELHLNGPLQWLDKVLTQMGSPSIRCSSVS
With B1, the binding entry in experiment [1] is “binds”; in experiment [2], “no binding”.

B2: Ski (protein, UniProt P12755 1-728)
chain: T4 sequence
As for B2, the binding result in experiment [3] is on record as “no binding”; in experiment [4], “binds”.

B3: SNW1 (protein, UniProt Q13573 1-536)
chain: T2 chain
Turning to B3, the binding entry in experiment [5] and in experiment [4] was “no binding” each time.

B4: Smad2, Q15796 1-467 (protein)
chain: MSSILPFTPPVVKRLLGWKKSAGGSGGAGGGEQNGQEEKWCEKAVKSLVKKLKKTGRLDELEKAITTQNCNTKCVTIPSTCSEIWGLSTPNTIDQWDTTGLYSFSEQTRSLDGRLQVSHRKGLPHVIYCRLWRWPDLHSHHELKAIENCEYAFNLKKDEVCVNPYHYQRVETPVLPPVLVPRHTEILTELPPLDDYTHSIPENTNFPAGIEPQSNYIPETPPPGYISEDGETSDQQLNQSMDTGSPAELSPTTLSPVNHSLDLQPVTYSEPAFWCSIAYYELNQRVGETFHASQPSLTVDGFTDPSNSERFCLGLLSNVNRNATVEMTRRHIGRGVRLYYIGGEVFAECLSDSAIFVQSPNCNQRYGWHPATVCKIPPGCNLKIFNNQEFAALLAQSVNQGFEAVYQLTRMCTIRMSFVKGWGAEYRRQTVTSTPCWIELHLNGPLQWLDKVLTQMGSPSVRCSSMS
Consider B4, for which the figures for the binding entry in experiment [1] and in experiment [2] were “binds” and “no binding”, respectively.

B5: p-Smad2, Q15796 1-467 (protein)
chain: B4 chain
modifications: here or on the partner: phosphorylated (p-Smad2; sites not given)
Regarding B5, the values for the binding entry in experiment [1] and in experiment [2] were “binds” and “no binding”, respectively.
